Experimental data: article PMC9830830
No constants are given. Whether binding was seen depends on the method and setting. Binding seen in cells or lysates may run through a third protein. Some binding calls cover weakened binding; strength is not graded here.

T1: CKLF-like MARVEL transmembrane domain-containing 6 (CMTM6) (human (endogenous in JIMT-1)) (UniProt Q9NX76)
T1 sequence: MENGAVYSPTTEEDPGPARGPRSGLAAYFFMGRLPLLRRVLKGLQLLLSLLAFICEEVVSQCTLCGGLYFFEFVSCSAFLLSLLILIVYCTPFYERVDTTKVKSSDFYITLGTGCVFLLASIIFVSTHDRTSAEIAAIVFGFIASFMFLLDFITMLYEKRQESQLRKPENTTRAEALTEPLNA


Key:
[1] = target: T1, CKLF-like MARVEL transmembrane domain-containing 6 (CMTM6) (human (endogenous in JIMT-1)); assay: co-IP; JIMT-1 cells lysed in RIPA buffer with protease/phosphatase inhibitor; lysate incubated at 4 °C for 4 h with anti-CMTM6, anti-HER2 or control IgG, then with beads at 4 °C overnight; washed with ice-cold PBS; Western blot with anti-HER2 or anti-CMTM6
[2] = target: Human epidermal growth factor receptor 2 (HER2) (human (endogenous in JIMT-1)) (UniProt P04626); assay: as above

Molecule | binding [1] | binding [2]
Human epidermal growth factor receptor 2 (HER2) (from UniProt P04626 23-1255) | binds | –
CKLF-like MARVEL transmembrane domain-containing 6 (CMTM6) (protein, UniProt Q9NX76 1-183) MENGAVYSPTTEEDPGPARGPRSGLAAYFFMGRLPLLRRVLKGLQLLLSLLAFICEEVVSQCTLCGGLYFFEFVSCSAFLLSLLILIVYCTPFYERVDTTKVKSSDFYITLGTGCVFLLASIIFVSTHDRTSAEIAAIVFGFIASFMFLLDFITMLYEKRQESQLRKPENTTRAEALTEPLNA | – | binds
